Data: the supplement of paper PMC8728848
This is one part of the list.

Key:
Test in all cases: glycan array binding signal (z-score within array); higher = stronger binding
Conditions in all cases: glycan notation: IUPAC condensed, linker removed
[1] = target: Gal(b1-4)GlcNAc(b1-3)Gal(b1-4)GlcNAc(b1-3)Gal(b1-4)GlcNAc(b1-3)Gal(b1-4)GlcNAc(b1-2)Man(a1-3)[Gal(b1-4)GlcNAc(b1-3)Gal(b1-4)GlcNAc(b1-3)Gal(b1-4)GlcNAc(b1-3)Gal(b1-4)GlcNAc(b1-2)Man(a1-6)]Man(b1-4)GlcNAc(b1-4)[Fuc(a1-6)]GlcNAc
Method in brief: (§1)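 The binding signal is a Z-score computed within each array. Data were drawn from 3228 arrays in the Consortium for Functional Glycomics database, restricted to those with a known protein sequence. Scores were averaged over arrays of the same protein sequence at different concentrations or buffers, and over linkers, and negative values can be taken as non-binding.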

[2] = target: Gal(b1-4)GlcNAc(b1-3)Gal(b1-4)GlcNAc(b1-3)Gal(b1-4)GlcNAc(b1-3)Gal(b1-4)GlcNAc(b1-2)[Gal(b1-4)GlcNAc(b1-3)Gal(b1-4)GlcNAc(b1-3)Gal(b1-4)GlcNAc(b1-3)Gal(b1-4)GlcNAc(b1-6)]Man(a1-6)[Gal(b1-4)GlcNAc(b1-3)Gal(b1-4)GlcNAc(b1-3)Gal(b1-4)GlcNAc(b1-3)Gal(b1-4)GlcNAc(b1-2)Man(a1-3)]Man(b1-4)GlcNAc(b1-4)[Fuc(a1-6)]GlcNAc
Method in brief: as §1

[3] = target: Gal(b1-4)GlcNAc(b1-3)Gal(b1-4)GlcNAc(b1-3)Gal(b1-4)GlcNAc(b1-3)Gal(b1-4)GlcNAc(b1-3)Gal(b1-4)GlcNAc(b1-2)Man(a1-3)[Gal(b1-4)GlcNAc(b1-3)Gal(b1-4)GlcNAc(b1-3)Gal(b1-4)GlcNAc(b1-3)Gal(b1-4)GlcNAc(b1-3)Gal(b1-4)GlcNAc(b1-2)Man(a1-6)]Man(b1-4)GlcNAc(b1-4)GlcNAc
Method in brief: as §1

[4] = target: Gal(b1-4)GlcNAc(b1-3)Gal(b1-4)GlcNAc(b1-3)Gal(b1-4)GlcNAc(b1-3)Gal(b1-4)GlcNAc(b1-3)Gal(b1-4)GlcNAc(b1-2)Man(a1-3)[Gal(b1-4)GlcNAc(b1-3)Gal(b1-4)GlcNAc(b1-3)Gal(b1-4)GlcNAc(b1-3)Gal(b1-4)GlcNAc(b1-3)Gal(b1-4)GlcNAc(b1-2)Man(a1-6)]Man(b1-4)GlcNAc(b1-4)[Fuc(a1-6)]GlcNAc
Method in brief: as §1

[5] = target: Gal(b1-4)GlcNAc(b1-3)Gal(b1-4)GlcNAc(b1-3)Gal(b1-4)GlcNAc(b1-3)Gal(b1-4)GlcNAc(b1-3)Gal(b1-4)GlcNAc(b1-2)[Gal(b1-4)GlcNAc(b1-3)Gal(b1-4)GlcNAc(b1-3)Gal(b1-4)GlcNAc(b1-3)Gal(b1-4)GlcNAc(b1-3)Gal(b1-4)GlcNAc(b1-6)]Man(a1-6)[Gal(b1-4)GlcNAc(b1-3)Gal(b1-4)GlcNAc(b1-3)Gal(b1-4)GlcNAc(b1-3)Gal(b1-4)GlcNAc(b1-3)Gal(b1-4)GlcNAc(b1-2)Man(a1-3)]Man(b1-4)GlcNAc(b1-4)[Fuc(a1-6)]GlcNAc
Method in brief: as §1

[6] = target: Gal(b1-4)GlcNAc(b1-3)Gal(b1-4)GlcNAc(b1-3)Gal(b1-4)GlcNAc(b1-3)Gal(b1-4)GlcNAc(b1-3)Gal(b1-4)GlcNAc(b1-3)Gal(b1-4)GlcNAc(b1-2)Man(a1-3)[Gal(b1-4)GlcNAc(b1-3)Gal(b1-4)GlcNAc(b1-3)Gal(b1-4)GlcNAc(b1-3)Gal(b1-4)GlcNAc(b1-3)Gal(b1-4)GlcNAc(b1-3)Gal(b1-4)GlcNAc(b1-2)Man(a1-6)]Man(b1-4)GlcNAc(b1-4)GlcNAc
Method in brief: as §1

[7] = target: Gal(b1-4)GlcNAc(b1-3)Gal(b1-4)GlcNAc(b1-3)GalNAc
Method in brief: as §1

[8] = target: Gal(b1-4)GlcNAc(b1-3)Gal(b1-4)GlcNAc(b1-3)[Gal(b1-4)GlcNAc(b1-3)Gal(b1-4)GlcNAc(b1-6)]GalNAc
Method in brief: as §1

[9] = target: Gal(b1-4)GlcNAc(b1-3)Gal(b1-4)GlcNAc(b1-6)[Gal(b1-3)]GalNAc
Method in brief: as §1

[10] = target: Gal(b1-4)GlcNAc(b1-3)Gal(b1-4)[Fuc(a1-3)]GlcNAc(b1-3)Gal(b1-4)[Fuc(a1-3)]GlcNAc
Method in brief: as §1

[11] = target: Gal(b1-4)GlcNAc(b1-3)GalNAc
Method in brief: as §1

[12] = target: Gal(b1-4)GlcNAc(b1-3)[Fuc(a1-3)GlcNAc(b1-6)]Gal(b1-4)Glc
Method in brief: as §1

[13] = target: Gal(b1-4)GlcNAc(b1-3)[Gal(b1-4)GlcNAc(b1-6)]Gal(b1-4)GlcNAc
Method in brief: as §1

[14] = target: Gal(b1-4)GlcNAc(b1-3)[GlcNAc(b1-6)]Gal(b1-4)GlcNAc
Method in brief: as §1

[15] = target: Gal(b1-4)GlcNAc(b1-6)Gal(b1-4)GlcNAc
Method in brief: as §1

[16] = target: Gal(b1-4)GlcNAc(b1-6)GalNAc
Method in brief: as §1

[17] = target: Gal(b1-4)GlcNAc(b1-6)[Gal(b1-3)]GalNAc
Method in brief: as §1

[18] = target: Gal(b1-4)GlcNAc(b1-6)[Gal(b1-4)GlcNAc(b1-3)]GalNAc
Method in brief: as §1

[19] = target: Gal(b1-4)GlcNAc6P
Method in brief: as §1

[20] = target: Gal(b1-6)Gal
Method in brief: as §1

[21] = target: Gal3S(b1-3)GalNAc
Method in brief: as §1

[22] = target: Gal3S(b1-3)GlcNAc
Method in brief: as §1

[23] = target: Gal3S(b1-3)[Fuc(a1-4)]GlcNAc
Method in brief: as §1

[24] = target: Gal3S(b1-4)Glc
Method in brief: as §1

[25] = target: Gal3S(b1-4)Glc6S
Method in brief: as §1

[26] = target: Gal3S(b1-4)GlcNAc
Method in brief: as §1

[27] = target: Gal3S(b1-4)[Fuc(a1-3)]Glc6S
Method in brief: as §1

[28] = target: Gal3S(b1-4)[Fuc(a1-3)]GlcNAc
Method in brief: as §1

[29] = target: Gal3S(b1-4)[Fuc(a1-3)]GlcNAc6S
Method in brief: as §1

[30] = target: Gal3S4S(b1-4)GlcNAc
Method in brief: as §1

[31] = target: Gal3S6S(b1-4)GlcNAc
Method in brief: as §1

[32] = target: Gal3S6S(b1-4)GlcNAc6S
Method in brief: as §1

[33] = target: Gal4S(b1-4)GlcNAc
Method in brief: as §1

[34] = target: Gal4S6S(b1-4)GlcNAc
Method in brief: as §1

[35] = target: Gal6P(b1-4)GlcNAc
Method in brief: as §1

[36] = target: Gal6S(b1-3)GlcNAc
Method in brief: as §1

[37] = target: Gal6S(b1-3)GlcNAc6S
Method in brief: as §1

[38] = target: Gal6S(b1-4)Glc
Method in brief: as §1

B1: LF82 (Escherichia coli) (protein)
chain: ADWGPCRTASGDPFIFVTSFTKNIQNPTDNVTGQTYPDFYQWALGDKYSGVCECPSPNPTEARPTLYKTESTLAAGHNSTYFKITNNLEVSTRVYIANVGNVQVPFINKSNSQPGRECDQPTFGWTTGSKGQLSLYIAKPFVGEQNIPQTIIVSVFGTKKENVYSSVPISQVLLSGKVTVTQGCELAAGTSLDIDFGEYQAHDFKGRTGQPPQNVQKIQKELTFNCTNISDGVHIYLSLEGTPNAAYPSAISLGNADVGAVIEDGKGNILKPNDSNSLLEMNPGSLYEYVKRKVTTTITAYPVSTTGKLPAAGDYSGVATMHVELDGGGGGGGGGGATTDLGAKGTLKFSLKISQGHHHHHH
For B1, the “glycan array binding signal (z-score)” value [1] was -0.358, the “glycan array binding signal (z-score)” value [2] was -1.08 and the “glycan array binding signal (z-score)” value [3] was -0.283. For the same binder, the “glycan array binding signal (z-score)” value [4] was -1.17, the “glycan array binding signal (z-score)” value [5] was 3.2 and the “glycan array binding signal (z-score)” value [6] was 0.959. For the same binder, the “glycan array binding signal (z-score)” value [7] was -0.979, the “glycan array binding signal (z-score)” value [8] was -0.293 and the “glycan array binding signal (z-score)” value [9] was -0.553. For the same binder, the “glycan array binding signal (z-score)” value [10] was -0.067, the “glycan array binding signal (z-score)” value [11] was -0.378 and the “glycan array binding signal (z-score)” value [12] was -0.449. For the same binder, the “glycan array binding signal (z-score)” value [13] was -1.27, the “glycan array binding signal (z-score)” value [14] was -0.31 and the “glycan array binding signal (z-score)” value [15] was -0.202. For the same binder, the “glycan array binding signal (z-score)” value [16] was 1.56, the “glycan array binding signal (z-score)” value [17] was -0.521 and the “glycan array binding signal (z-score)” value [18] was -0.454. The “glycan array binding signal (z-score)” value [19] was -0.346, the “glycan array binding signal (z-score)” value [20] was -0.909 and the “glycan array binding signal (z-score)” value [21] was 0.05. The “glycan array binding signal (z-score)” value [22] was -0.741, the “glycan array binding signal (z-score)” value [23] was -1.08 and the “glycan array binding signal (z-score)” value [24] was -0.34. For the same binder, the “glycan array binding signal (z-score)” value [25] was -0.104, the “glycan array binding signal (z-score)” value [26] was -0.102 and the “glycan array binding signal (z-score)” value [27] was -0.55. The “glycan array binding signal (z-score)” value [28] was 0.367, the “glycan array binding signal (z-score)” value [29] was 0.096 and the “glycan array binding signal (z-score)” value [30] was -0.428. The “glycan array binding signal (z-score)” value [31] was 0.787, the “glycan array binding signal (z-score)” value [32] was -0.014 and the “glycan array binding signal (z-score)” value [33] was -0.492. For the same binder, the “glycan array binding signal (z-score)” value [34] was -0.039, the “glycan array binding signal (z-score)” value [35] was -0.578 and the “glycan array binding signal (z-score)” value [36] was -1.32. For the same binder, the “glycan array binding signal (z-score)” value [37] was -0.889 and the “glycan array binding signal (z-score)” value [38] was -0.342.
